No constants are given. Whether binding was seen depends on the method and setting. In cells and extracts the contact can be indirect. A result given as binding can be weak or reduced; the word gives no strength. Where a sequence is shown, tags or fusion partners need not be part of it.
These substances were tested against T1, HA-tagged full-length wild-type human Rev1 (human) (UniProt Q9UBZ9) (assay: co-IP; HA-tagged full-length Rev1 on anti-HA resins, extracts from transfected HEK293T cells expressing FLAG-tagged wild-type or mutant Polι; western blot).
T1 sequence: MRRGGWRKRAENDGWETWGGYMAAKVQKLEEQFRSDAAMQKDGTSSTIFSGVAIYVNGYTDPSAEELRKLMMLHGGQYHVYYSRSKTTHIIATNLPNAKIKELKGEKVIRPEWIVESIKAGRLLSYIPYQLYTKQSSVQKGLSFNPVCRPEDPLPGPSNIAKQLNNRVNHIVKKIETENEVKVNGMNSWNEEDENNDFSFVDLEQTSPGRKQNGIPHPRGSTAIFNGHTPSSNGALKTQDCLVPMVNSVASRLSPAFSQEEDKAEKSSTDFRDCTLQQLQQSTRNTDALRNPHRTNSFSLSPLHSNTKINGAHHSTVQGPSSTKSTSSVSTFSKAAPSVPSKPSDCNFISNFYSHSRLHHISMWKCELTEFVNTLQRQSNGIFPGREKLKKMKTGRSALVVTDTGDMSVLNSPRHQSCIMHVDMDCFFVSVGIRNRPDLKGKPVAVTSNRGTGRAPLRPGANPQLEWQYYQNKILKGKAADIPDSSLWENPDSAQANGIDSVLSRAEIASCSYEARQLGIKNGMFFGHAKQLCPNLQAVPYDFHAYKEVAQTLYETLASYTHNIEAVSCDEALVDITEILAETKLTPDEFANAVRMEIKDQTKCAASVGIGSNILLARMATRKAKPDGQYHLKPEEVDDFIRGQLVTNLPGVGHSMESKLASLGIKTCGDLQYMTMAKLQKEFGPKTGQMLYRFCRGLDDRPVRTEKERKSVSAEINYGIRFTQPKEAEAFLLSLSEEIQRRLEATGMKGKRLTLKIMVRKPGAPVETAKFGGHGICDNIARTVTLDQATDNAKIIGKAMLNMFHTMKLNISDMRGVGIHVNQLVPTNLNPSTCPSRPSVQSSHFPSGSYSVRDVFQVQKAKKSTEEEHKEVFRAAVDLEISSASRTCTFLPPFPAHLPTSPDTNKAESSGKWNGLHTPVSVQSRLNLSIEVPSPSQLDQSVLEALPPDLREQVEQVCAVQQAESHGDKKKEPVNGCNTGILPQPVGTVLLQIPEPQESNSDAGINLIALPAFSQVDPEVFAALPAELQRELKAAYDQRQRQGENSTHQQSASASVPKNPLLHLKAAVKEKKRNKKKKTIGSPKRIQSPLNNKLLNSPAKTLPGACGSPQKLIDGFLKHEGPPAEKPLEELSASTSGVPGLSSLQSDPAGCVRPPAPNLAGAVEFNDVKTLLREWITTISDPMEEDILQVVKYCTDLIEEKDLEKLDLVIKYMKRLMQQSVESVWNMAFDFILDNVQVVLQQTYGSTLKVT

Substance | binding
FLAG-tagged full-length human DNA polymerase iota (Polι) | binds
FLAG-Polι K549Q/K550Q (human) | binds
FLAG-Polι F546A/F547A (human) | no binding
FLAG-Polι K550Q (human) | binds

More lines, now with the values ahead:

binding | Substance
binds | FLAG-Polι K549R/K550R (human)
binds | FLAG-Polι K550R (human)
